Reference: patent US9861642B2, “Methods for diagnosing and treating asthma” (The Children's Research Institute, priority 2010, dated 2018)
For at least one compound, name, drawing or mass did not settle the structure.

Columns and labels:
Assay type in all cases: cell-based
[1] = tested on: asthmatic primary differentiated human airway epithelia; assay: Cytometric bead assay of cytokines in apical secretions of wounded asthmatic epithelia; settings: DEX-exposure
[2] = tested on: asthmatic primary differentiated human airway epithelia; assay: Flow cytometric cell cycle analysis (7-AAD) of BrdU+ cells from wounded asthmatic epithelia; settings: Example 1, wounded asthmatic epithelia, 20 nM 2 h pulses, +48 h
Protocol: On arrival, the in vitro epithelia were washed with phosphate buffered saline (PBS) and the basal medium was replaced with proprietary defined medium supplied by the manufacturer. Cells were equilibrated at 37° C. and 5% CO2 for 16 h followed by medium replacement with identical proprietary medium lacking glucocorticoids and epidermal growth factor (EGF). This condition was maintained for an additional 22 h. […]
An in vitro epithelial injury model that allows for the study of epithelial repair processes in the lung was adapted for use in this study. […] In some experiments, wounds were imaged daily (i.e. 0, +24, +48 h) using a 16× phase contrast objective lens and wound area was measured in triplicate by a single operator blinded to the culture conditions using ImageJ Software (Rasband. ImageJ. Bethesda, Md., USA: U. S. National Institutes of Health; 1997-2009). […]
Epithelia were washed once with PBS and harvested at +48 h (FIG. 1) for analysis by flow cytometry. […] Data were analyzed by means of the cell cycle analysis feature of FlowJo 7.6 (Tree Star, Inc., Ashland, Oreg.) using a Watson (Pragmatic) model with equal coefficients of variation for the G1/G0 and G2/M peaks […]

[3] = tested on: normal primary differentiated human airway epithelia; assay: Cytometric bead assay of cytokines in apical secretions of wounded normal epithelia; settings: DEX-exposure
[4] = tested on: normal primary differentiated human airway (bronchial) epithelia; assay: BrdU flow cytometry of mitotically active cells after scrape-wounding, normal epithelia; settings: wounded normal epithelia, 20 nM 2 h pulses every 24 h, +48 h
[5] = tested on: asthmatic primary differentiated human airway epithelia; assay: Cytometric bead assay of cytokines in basolateral secretions of wounded asthmatic epithelia; settings: 2 h pulses
[6] = wounded asthmatic epithelia, vs. vehicle

Compound | apical IL-13 secretion [1] | apical levels of other measured cytokines (except IL-1β) [1] | mitotic synchrony (cell cycle distribution of BrdU+ cells) [2] | apical IL-13 secretion [3] | apical levels of other measured cytokines (except IL-1β) [3] | quantity of BrdU+ cells [4] | asthmatic epithelial inflammatory cytokine secretion ([5]; Example 2, wounded asthmatic epithelia) | basolateral IL-13 secretion [5, 6] | basolateral TGF-β1 secretion [5, 6] | basolateral IL-6 secretion [5, 6]
C[C@@H]1C[C@H]2[C@@H]3CCC4=CC(=O)C=C[C@]4(C)[C@@]3(F)[C@@H](O)C[C@]2(C)[C@@]1(O)C(=O)CO [DEX, Dexamethasone] | decreased | unchanged | similarly synchronous mitotic activity to normal cells | decreased | unchanged | did not significantly alter | reducing | significantly reduced | significantly reduced | –
CCC(C)(C)C(=O)O[C@H]1C[C@@H](C)C=C2C=C[C@H](C)[C@H](CC[C@@H]3C[C@@H](O)CC(=O)O3)[C@H]21 [simvastatin] | – | – | – | – | – | – | – | reduced | reduced | reduced
